Test results taken from PubChem BioAssay AID504847 (National Center for Advancing Translational Sciences (NCATS), 2011).
The campaign covered roughly 400,000 compounds. About 3,700 (0.93%) were called active. The shares of active, inactive and inconclusive entries below differ from those in the screen. The call rests on the fitted dose curve; in most records, active means well fitted inhibition curve with a large enough effect; inconclusive means small, poorly fitted or top-dose-only effect, or another doubt; inactive means no such curve, though single readings can be large or run the other way. Where the call is inconclusive, the potency comes from a doubtful curve fit.

Chains of the proteins cited; added tags and fusions are not shown. Lines headed by an entry give the natural chain unless they say otherwise; changes in a name come on top.
UniProt P11473: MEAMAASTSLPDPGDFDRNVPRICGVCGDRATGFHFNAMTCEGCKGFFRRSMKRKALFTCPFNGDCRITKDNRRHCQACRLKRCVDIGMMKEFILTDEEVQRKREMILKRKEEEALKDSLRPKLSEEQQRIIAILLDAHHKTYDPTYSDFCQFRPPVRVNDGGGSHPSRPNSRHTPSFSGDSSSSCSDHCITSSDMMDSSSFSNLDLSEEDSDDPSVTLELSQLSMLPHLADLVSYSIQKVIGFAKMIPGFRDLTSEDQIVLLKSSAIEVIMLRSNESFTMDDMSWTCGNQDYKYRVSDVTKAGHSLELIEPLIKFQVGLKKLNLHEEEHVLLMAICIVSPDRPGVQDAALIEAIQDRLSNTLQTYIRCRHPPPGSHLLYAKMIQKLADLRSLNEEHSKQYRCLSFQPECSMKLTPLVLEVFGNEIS

These compounds were tested against Vitamin D3 receptor (Homo sapiens) (UniProt P11473) (assay: Inhibitors of the vitamin D receptor (VDR): qHTS). Details: VDR-SRC2-3 peptide fluorescence polarization, 2 h; max response, negative = inhibition: hits give low values.
Method in brief: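 After 23 nl compound addition and a short centrifugation, plates sat for 2 hours at ambient temperature; polarization of fluorescence then indicated loss of VDR binding to peptide SRC2-3.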
On the % scale 0 is the no-effect control and ±100 the full control effect; potency means the concentration at half of the fitted maximal effect.

SMILES	Potency	max response, negative = inhibition
CCOc1c(OC(C)=O)ccc(/C=C2\N=C(SCC)SC2=O)c1[N+](=O)[O-]	inconclusive: 56.2 µM [inhibitor, partial curve, poor fit]	
Cc1cc(NC(=O)CN2CCN(C)CC2)no1	inconclusive: 25.1 µM [inhibitor, partial curve, poor fit]	
Cc1ccc(NC(=O)CNCc2ccc(Cl)cc2Cl)cc1S(=O)(=O)N(C)C	inconclusive: 79.4 µM [inhibitor, partial curve, poor fit]	
CCOC(=O)C(NCCCO)c1ccccc1 (centres undefined)		inactive: -9.36%
CC1=C(C(=O)O)N2C(=O)[C@@H](NC(=O)C(N)C3=CCC=CC3)[C@H]2SC1 (some centres undefined)	inconclusive: 79.4 µM [inhibitor, partial curve, poor fit]	
CCN1C(=O)/C(=C\N(C(C)=O)c2ccccc2)OC1=S	inconclusive: 89.1 µM [inhibitor, partial curve, poor fit]	
C=CCc1cc(C)ccc1OCCOCCn1ccnc1		inactive: -1.55%
C[C@@H]1CCC2[C@@H](C)[C@@H](O)O[C@@H]3O[C@@]4(C)CC[C@@H]1[C@@]23OO4 (some centres undefined)		inactive: 30.2%
COc1ccccc1C(=O)Nc1ccccc1OCc1cc(=O)n2cc(C)sc2n1	inconclusive: 89.1 µM [inhibitor, single point]	
O=C(c1ccc(Br)o1)N1N=C(c2ccc(Cl)cc2)CC1c1ccco1 (centres undefined)	inconclusive: 89.1 µM [inhibitor, single point]	
Cc1ccc(S(=O)(=O)CCC(=O)c2ccc(F)cc2)cc1	inconclusive: 28.2 µM [inhibitor, partial curve, poor fit]	
Cc1ccc2nc(NC(=O)C3CCN(S(=O)(=O)c4cccs4)CC3)sc2c1		inactive: 3.53%
COC(=O)N1CCC2(CC1)CN(c1ccncc1)C2		inactive: -2.19%
CC1(C)CCSC(/C=C/c2ccccc2)=N1	inconclusive: 11.2 µM [inhibitor, full curve]	
Cc1cc(N)ccc1N1CCCC1	active: 70.8 µM	
COc1ccc2[nH]c(C)c(CCN3C(=O)C4CC=CCC4C3=O)c2c1 (centres undefined)	inconclusive: 89.1 µM [inhibitor, single point]	
O=C1CC(c2ccccc2)CC(O)=C1C=Nc1ccccc1O (centres undefined)		inactive: 5.22%
O=C(O)c1cc(Cl)c2c(c1)[C@@H]1C=CC[C@@H]1[C@H](c1ccc(S(=O)(=O)N3CCOCC3)cc1)N2	inconclusive: 56.2 µM [inhibitor, partial curve, poor fit]	
CS(=O)(=O)N(CC(=O)N1CCCCCC1)c1cc(Cl)ccc1Cl	inconclusive: 79.4 µM [inhibitor, partial curve, poor fit]	

Another view of part of the listing above.

| SMILES | Potency | max response, negative = inhibition |
| --- | --- | --- |
| Cc1ccc2nc(NC(=O)C3CCN(S(=O)(=O)c4cccs4)CC3)sc2c1 |  | inactive: 3.53% |
| COC(=O)N1CCC2(CC1)CN(c1ccncc1)C2 |  | inactive: -2.19% |
| CC1(C)CCSC(/C=C/c2ccccc2)=N1 | inconclusive: 11.2 µM [inhibitor, full curve] |  |
| Cc1cc(N)ccc1N1CCCC1 | active: 70.8 µM |  |
